This series can be described thus: physchem. The following applies: pH 7.4.

The term thermodynamic solubility denotes the concentration in solution at equilibrium with solid.

In brackets after ≈: the same amount, converted by molar mass.

Take `O=[N+]([O-])CC(c1ccccc1)c1c(-c2ccccc2)[nH]c2ccccc12` (stereo not shown) [Compound 6d, 3-(2-Nitro-1-phenylethyl)-2-phenyl-1H-indole]: the thermodynamic solubility is 2.7 µg/mL (≈ 7.89 µM).

The record behind these values is PMC7077750 (Journal of medicinal chemistry, 2020).
